Test results from publication PMC11316025.
These are yes or no findings as the source states them, for the method shown. Binding seen in cells or lysates may run through a third protein. Binding calls can cover weak binding; strength is not graded here. For part of these data: Tags and fused reporters may be left off the sequences shown.

Sequences of proteins named here, by UniProt entry; tags and fusion partners are left off. A change or cut given only in a name is not applied to a line headed by its entry.
UniProt P10301: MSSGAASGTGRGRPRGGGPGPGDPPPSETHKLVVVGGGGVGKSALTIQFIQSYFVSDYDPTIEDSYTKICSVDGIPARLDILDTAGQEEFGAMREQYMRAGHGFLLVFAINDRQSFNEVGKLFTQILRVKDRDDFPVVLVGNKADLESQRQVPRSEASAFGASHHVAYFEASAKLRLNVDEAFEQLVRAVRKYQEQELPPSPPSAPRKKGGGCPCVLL

Assays:
[1] = target: GST-tagged RASSF5 RA domain (human) (UniProt Q8WWW0); assay: pull-down; validation pull-downs (Fig. EV1C, Fig. 2A): recombinant purified GST-RASSF5 RA or GST alone with HEK 293T lysates expressing VENUS-tagged GTPases (activated, wild-type or dominant-negative variants); Western blot; only the target purified
[2] = target: GST-tagged RASSF5 RA domain (human) (UniProt Q8WWW0); assay: pull-down; systematic screen: 2 µM purified GST-tagged RBD/RA domain (or GST alone) and glutathione beads incubated 30 min with HEK 293T lysate expressing a VENUS-tagged GTPase; Bio-Spin columns on a vacuum manifold, washed three times with lysis buffer (20 mM Tris-HCl pH 7.5, 150 mM NaCl, 5 mM MgCl2, 10% glycerol, 1% Triton X-100, 1% NP-40, 1 mM DTT); Western blot; GST-alone signal subtracted; heatmap from two replicates; only the target purified
[3] = target: T1, full-length FLAG-tagged RASSF5 (human) (UniProt Q8WWW0); assay: co-IP; HEK 293T co-transfected with FLAG-tagged RASSF and VENUS-tagged GTPase; lysis in 20 mM Tris-HCl pH 7.5, 150 mM NaCl, 5 mM MgCl2, 10% glycerol, 1% Triton X-100, 1 mM DTT; anti-FLAG on Protein G Sepharose 1 h, three washes; blot with anti-GFP
T1 sequence: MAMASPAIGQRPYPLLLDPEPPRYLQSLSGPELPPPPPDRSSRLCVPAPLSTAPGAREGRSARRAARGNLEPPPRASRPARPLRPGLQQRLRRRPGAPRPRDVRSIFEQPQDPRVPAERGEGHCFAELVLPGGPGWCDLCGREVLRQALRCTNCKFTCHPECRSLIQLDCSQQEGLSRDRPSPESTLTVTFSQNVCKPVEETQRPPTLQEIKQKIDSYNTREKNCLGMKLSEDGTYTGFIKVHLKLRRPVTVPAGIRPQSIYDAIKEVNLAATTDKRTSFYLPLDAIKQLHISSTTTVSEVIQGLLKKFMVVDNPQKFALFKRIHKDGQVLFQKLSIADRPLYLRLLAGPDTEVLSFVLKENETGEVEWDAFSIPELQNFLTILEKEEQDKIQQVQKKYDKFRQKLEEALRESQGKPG

binding [1]: binds | binding [2]: binds | binding [3]: binds
Substance: VENUS-RRAS-G30V (from UniProt P10301)
